Five molecules from article PMC7950214 can be followed below.

Amino acid sequences for entries named in this document (tags omitted).
UniProt Q38931: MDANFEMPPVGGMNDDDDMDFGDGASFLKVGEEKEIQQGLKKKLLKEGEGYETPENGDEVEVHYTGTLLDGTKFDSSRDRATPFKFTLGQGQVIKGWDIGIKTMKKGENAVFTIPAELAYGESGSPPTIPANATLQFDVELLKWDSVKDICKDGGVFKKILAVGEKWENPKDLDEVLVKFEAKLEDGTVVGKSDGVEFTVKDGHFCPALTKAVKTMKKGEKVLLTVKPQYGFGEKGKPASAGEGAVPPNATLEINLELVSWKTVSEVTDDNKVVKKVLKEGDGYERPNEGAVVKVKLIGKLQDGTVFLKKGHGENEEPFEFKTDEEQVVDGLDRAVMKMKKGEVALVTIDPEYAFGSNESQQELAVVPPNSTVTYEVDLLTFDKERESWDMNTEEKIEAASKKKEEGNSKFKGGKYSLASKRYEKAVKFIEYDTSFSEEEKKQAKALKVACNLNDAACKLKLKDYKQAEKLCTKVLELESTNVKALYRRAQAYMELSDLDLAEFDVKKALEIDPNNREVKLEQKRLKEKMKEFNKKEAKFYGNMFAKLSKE

No constants are given. Whether binding was seen depends on the method and setting. Binding seen in cells or lysates may run through a third protein. A yes stands for co-enrichment or nearness to the bait. Other partners may have been found. For part of these data: A no says only that the protein was not detected with the bait. Tags and fused reporters may be left off the sequences shown.

Assay [1] addresses T1, GS-MAX2 (MORE AXILLARY GROWTH 2, N-terminal GS tag) (Arabidopsis thaliana) (UniProt Q9SIM9).
T1 sequence: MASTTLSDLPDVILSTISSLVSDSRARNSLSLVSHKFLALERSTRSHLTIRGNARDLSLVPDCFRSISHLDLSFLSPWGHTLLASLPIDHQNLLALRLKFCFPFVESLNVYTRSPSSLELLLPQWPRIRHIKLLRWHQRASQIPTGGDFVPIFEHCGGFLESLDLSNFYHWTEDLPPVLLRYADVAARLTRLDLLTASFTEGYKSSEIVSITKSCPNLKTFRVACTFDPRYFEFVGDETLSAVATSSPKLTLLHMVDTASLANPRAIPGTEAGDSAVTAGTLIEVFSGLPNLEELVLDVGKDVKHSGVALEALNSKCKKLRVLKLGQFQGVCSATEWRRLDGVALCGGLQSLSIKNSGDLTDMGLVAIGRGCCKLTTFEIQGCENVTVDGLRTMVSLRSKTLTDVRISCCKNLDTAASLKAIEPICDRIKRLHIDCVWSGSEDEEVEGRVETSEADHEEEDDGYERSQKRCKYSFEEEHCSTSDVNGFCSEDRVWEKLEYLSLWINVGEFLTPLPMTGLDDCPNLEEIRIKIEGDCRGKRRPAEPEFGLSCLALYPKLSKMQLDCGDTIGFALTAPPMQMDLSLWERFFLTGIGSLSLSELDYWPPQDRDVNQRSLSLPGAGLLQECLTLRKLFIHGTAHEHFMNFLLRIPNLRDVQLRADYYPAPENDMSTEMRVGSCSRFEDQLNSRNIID
In words: affinity purification with mass spectrometry; tandem affinity purification (IgG-Sepharose, AcTEV, streptavidin beads) of the N-terminally GS-tagged bait from Arabidopsis PSB-D cell culture extracts; cells treated 5 h with 0.01% acetone (mock) or 1 μM rac-GR24; two replicates each; LC-MS/MS; background proteins filtered out.

Assay [2] deals with T2, GS-MAX2ΔFBOX (MAX2 without its first 53 amino acids, N-terminal GS tag) (Arabidopsis thaliana) (UniProt Q9SIM9).
T2 sequence: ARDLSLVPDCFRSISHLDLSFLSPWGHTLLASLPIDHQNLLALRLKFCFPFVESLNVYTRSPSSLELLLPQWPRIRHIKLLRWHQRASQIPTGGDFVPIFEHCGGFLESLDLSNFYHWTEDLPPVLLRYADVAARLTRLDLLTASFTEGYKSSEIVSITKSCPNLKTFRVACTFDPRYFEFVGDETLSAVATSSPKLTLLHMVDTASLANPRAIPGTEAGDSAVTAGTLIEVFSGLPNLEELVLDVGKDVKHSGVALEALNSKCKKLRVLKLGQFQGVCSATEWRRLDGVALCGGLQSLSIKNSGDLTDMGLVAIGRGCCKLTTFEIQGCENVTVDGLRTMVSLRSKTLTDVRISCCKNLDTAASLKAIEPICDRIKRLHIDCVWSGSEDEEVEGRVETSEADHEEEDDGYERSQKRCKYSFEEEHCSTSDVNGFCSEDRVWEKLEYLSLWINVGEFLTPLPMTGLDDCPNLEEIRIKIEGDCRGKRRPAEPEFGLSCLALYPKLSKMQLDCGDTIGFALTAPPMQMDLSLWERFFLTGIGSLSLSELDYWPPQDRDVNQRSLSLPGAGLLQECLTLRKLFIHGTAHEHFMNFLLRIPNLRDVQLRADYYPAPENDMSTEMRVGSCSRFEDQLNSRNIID
The description is as above.

The target of assay [3] is T1, GS-MAX2 (MORE AXILLARY GROWTH 2, N-terminal GS tag) (Arabidopsis thaliana). The assay is described as follows: condition: only cells treated with 1 μM rac-GR24 for 5 h; affinity purification with mass spectrometry; as a1, only the samples of cells treated 5 h with 1 μM rac-GR24.
In assay [4] the target is T3, KAI2-GFP (Arabidopsis thaliana) (UniProt Q9SZU7).
T3 sequence: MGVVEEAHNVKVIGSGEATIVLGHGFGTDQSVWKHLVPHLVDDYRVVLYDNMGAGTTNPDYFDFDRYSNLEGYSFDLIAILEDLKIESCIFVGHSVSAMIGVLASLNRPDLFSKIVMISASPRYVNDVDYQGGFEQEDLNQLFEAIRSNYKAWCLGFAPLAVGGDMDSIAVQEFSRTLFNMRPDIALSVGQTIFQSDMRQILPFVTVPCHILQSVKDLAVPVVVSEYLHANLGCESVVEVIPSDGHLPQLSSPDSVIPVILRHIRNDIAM
The assay is described as follows: affinity purification with mass spectrometry; single-step purification on GFP-Trap-A of D14-GFP or KAI2-GFP from Arabidopsis PSB-D cell culture extracts; cells treated 15 min with 1 μM rac-GR24; three replicates; label-free quantification, KAI2 compared with D14.

Assay [5] addresses T4, GS-MAX2 (MORE AXILLARY GROWTH 2, N-terminal GS tag) (Arabidopsis thaliana), Q9SIM9.
T4 chain: T1 sequence
The assay is described as follows: affinity purification with mass spectrometry; tandem affinity purification (IgG-Sepharose, AcTEV, streptavidin beads) of the N-terminally GS-tagged bait from Arabidopsis PSB-D cell culture extracts; cells treated 5 h with 0.01% acetone (mock) or 1 μM rac-GR24; two replicates each; LC-MS/MS; background proteins filtered out. The settings on record: remark: other sources report otherwise.

The target in assay [6] is T5, D14-GFP (Arabidopsis thaliana), Q9SQR3.
T5 chain: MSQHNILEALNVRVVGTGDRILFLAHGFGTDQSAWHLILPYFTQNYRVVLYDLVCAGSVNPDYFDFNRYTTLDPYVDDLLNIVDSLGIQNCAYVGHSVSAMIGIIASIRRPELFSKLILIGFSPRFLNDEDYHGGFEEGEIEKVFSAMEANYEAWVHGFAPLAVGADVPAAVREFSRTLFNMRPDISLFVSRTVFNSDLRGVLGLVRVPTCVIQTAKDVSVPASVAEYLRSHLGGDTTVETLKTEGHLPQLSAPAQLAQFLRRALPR
In words: affinity purification with mass spectrometry; single-step purification on GFP-Trap-A of D14-GFP or KAI2-GFP from Arabidopsis PSB-D cell culture extracts; cells treated 15 min with 1 μM rac-GR24; three replicates; label-free quantification, KAI2 compared with D14. The settings on record: remark: other sources report otherwise.

As to “PHYTOCHROME-ASSOCIATED PROTEIN PHOSPHATASE 5 (PAPP5), endogenous (enzyme)”, the binding result in assay [1] is “binds”; in assay [2], “binds”; in assay [3] it was “no binding”.

For ROF1 (from UniProt Q38931 1-551), the binding entry in assay [1] is “no binding”; in assay [2], “binds”; in assay [4] it was “binds”.

B1: DWARF 14 (D14), endogenous, Q9SQR3 1-267 (receptor)
chain: T5 chain
Regarding B1, the binding result in assay [5] is “no binding”.

B2: MORE AXILLARY GROWTH 2 (MAX2), endogenous, Q9SIM9 1-693 (protein)
chain: T1 sequence
For the molecule B2, in assay [6], the binding result is reported as “no binding”.

B3: MORE AXILLARY GROWTH 2 (MAX2), endogenous (protein, UniProt Q9SIM9 1-693)
chain: T1 sequence
Turning to B3, the binding entry in assay [4] is on record as “no binding”.
